PubChem BioAssay AID1159584 | Peter MacCallum Cancer Centre – 2016
The whole screen tested about 18,000 reagents; this is a part drawn at random. Not stated in the record: the amount of reagent, the time to read-out.

- Assay: 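Genes whose loss is lethal only together with E-cadherin loss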 (primary screen)
- System: human MCF10A breast epithelial cells, parental and CDH1-null
- Reagent: siRNA against human genes
- Measurement: 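Cell viability by CellTiter-Glo ATP luminescence, each line scaled to the mean of mock wells across plates, then CDH1-null over parental ratio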
- Scale: CDH1-null / parental viability ratio: higher = CDH1-null cells survive relatively better than parental; CDH1-null viability vs mock: higher = more viable CDH1-null cells; parental viability vs mock: higher = more viable parental cells

gene,CDH1-null / parental viability ratio,CDH1-null viability vs mock (fraction of mock),parental viability vs mock (fraction of mock)
CABLES1,1.24,0.78,0.63
PLEKHG1,1.28,0.59,0.46
CFL2,0.88,0.66,0.75
CD209,1.1,0.77,0.7
PPM1M,1.66,0.96,0.58
KCNK16,1.16,0.89,0.77
CPT1A,0.98,0.8,0.82
ITGBL1,1.13,0.88,0.78
PMM1,0.98,0.82,0.84
GPSM1,1.38,0.72,0.52
MMP1,1.32,0.82,0.62
EEF1E1,1.6,1.04,0.65
RPL4,1.33,0.48,0.36
DNMT3B,0.9,0.83,0.92
FILIP1,0.88,0.86,0.98
TCF23,0.91,0.58,0.64

In a second layout: 3 of the entries above.
| gene | CDH1-null / parental viability ratio | CDH1-null viability vs mock (fraction of mock) | parental viability vs mock (fraction of mock) |
| --- | --- | --- | --- |
| KCNK16 | 1.16 | 0.89 | 0.77 |
| CPT1A | 0.98 | 0.8 | 0.82 |
| ITGBL1 | 1.13 | 0.88 | 0.78 |

The results go on.
gene,CDH1-null / parental viability ratio,CDH1-null viability vs mock (fraction of mock),parental viability vs mock (fraction of mock)
SPACA7,0.93,0.83,0.89
PARD3,1.02,0.62,0.61
ACP3,1.31,0.84,0.64
PMPCB,1.25,0.8,0.64
PRKG1,0.99,0.82,0.83
CYP27A1,0.83,0.65,0.78
RWDD2B,0.98,0.8,0.82
C18orf54,0.85,0.88,1.04
NALF1,0.99,0.86,0.87
GSC,0.74,0.52,0.7
USP28,1.19,1.12,0.94
TMEM63C,0.88,0.58,0.66
